PubChem BioAssay AID1259300 | Sanger Institute – 2017
Assay: 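siRNA screen of kinases and common colorectal cancer mutant genes, alone or with drugs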 (primary screen). System: HCT15 colorectal cancer cells. Knock-down reagent: siRNA pool against human genes. Conditions: anchor drug or DMSO vehicle added 24 h after seeding: BYL719 1 µM, cetuximab 5 µg/ml, trametinib 10 nM; drug doses chosen to barely affect viability alone. Measurement: 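Replicate-mean viability relative to non-targeting pool control with robust z-score for knock-down without drug; per-drug synergy scores for BYL719 (1 µM), cetuximab (5 µg/ml), trametinib (10 nM)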. Scale: viability z-score, siRNA alone: higher = more viable cells after knock-down. Hit rule: 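a knock-down without drug that drives the robust viability z-score under -3 is active, i.e. essential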. Meaning of the calls: active = essential: knock-down alone lowers viability (z below -3); inactive = no strong viability loss with knock-down alone.
The whole screen tested 794 reagents; below is an unselected part. Of all reagents, 18 (2.3%) are marked active. 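Calls rest on knock-down alone, not drug synergy; depositor treated synergy scores above 0.15 as synergistic; drug doses alone had little viability effect.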 Further read-outs or replicates are left out here. The record does not give: the amount of reagent, the time to read-out.

{"gene": "MAPK6 (mitogen-activated protein kinase 6)", "viability z-score, siRNA alone": 0.625, "Call": "inactive"}
{"gene": "PRKACA (protein kinase cAMP-activated catalytic subunit alpha)", "viability z-score, siRNA alone": 0.625, "Call": "inactive"}
{"gene": "JAK2 (Janus kinase 2)", "viability z-score, siRNA alone": 0.625, "Call": "inactive"}
{"gene": "PEAK1 (pseudopodium enriched atypical kinase 1)", "viability z-score, siRNA alone": 0.103, "Call": "inactive"}
{"gene": "SMG1", "viability z-score, siRNA alone": 0.0182, "Call": "inactive"}
{"gene": "MAPK13 (mitogen-activated protein kinase 13)", "viability z-score, siRNA alone": 0.625, "Call": "inactive"}
{"gene": "DNMT3A (DNA methyltransferase 3 alpha)", "viability z-score, siRNA alone": 0.493, "Call": "inactive"}
{"gene": "LMTK1 (lemur tail kinase 1)", "viability z-score, siRNA alone": 0.625, "Call": "inactive"}
{"gene": "BMP2K (BMP2 inducible kinase)", "viability z-score, siRNA alone": 0.625, "Call": "inactive"}
{"gene": "CUL1 (cullin 1)", "viability z-score, siRNA alone": 0.546, "Call": "inactive"}
{"gene": "TLK2 (tousled like kinase 2)", "viability z-score, siRNA alone": -0.368, "Call": "inactive"}
{"gene": "PRPS1 (phosphoribosyl pyrophosphate synthetase 1)", "viability z-score, siRNA alone": 0.625, "Call": "inactive"}
{"gene": "LRRK2 (leucine rich repeat kinase 2)", "viability z-score, siRNA alone": 0.625, "Call": "inactive"}
{"gene": "PTK7 (protein tyrosine kinase 7 (inactive))", "viability z-score, siRNA alone": -1.49, "Call": "inactive"}
{"gene": "IRAK2 (interleukin 1 receptor associated kinase 2)", "viability z-score, siRNA alone": 0.625, "Call": "inactive"}
{"gene": "SGK1 (serum/glucocorticoid regulated kinase 1)", "viability z-score, siRNA alone": 0.625, "Call": "inactive"}
{"gene": "PDK1 (pyruvate dehydrogenase kinase 1)", "viability z-score, siRNA alone": -0.646, "Call": "inactive"}
{"gene": "RIPK3 (receptor interacting serine/threonine kinase 3)", "viability z-score, siRNA alone": 0.625, "Call": "inactive"}
{"gene": "FN3KRP (fructosamine 3 kinase related protein)", "viability z-score, siRNA alone": -0.394, "Call": "inactive"}
{"gene": "MAP3K9 (mitogen-activated protein kinase kinase kinase 9)", "viability z-score, siRNA alone": -1.63, "Call": "inactive"}
{"gene": "BMPR1A (bone morphogenetic protein receptor type 1A)", "viability z-score, siRNA alone": 0.625, "Call": "inactive"}
{"gene": "GRK7 (G protein-coupled receptor kinase 7)", "viability z-score, siRNA alone": -0.0685, "Call": "inactive"}
{"gene": "CHEK1 (checkpoint kinase 1)", "viability z-score, siRNA alone": -2.56, "Call": "inactive"}
{"gene": "EIF2AK4 (eukaryotic translation initiation factor 2 alpha kinase 4)", "viability z-score, siRNA alone": 0.567, "Call": "inactive"}
{"gene": "STK31 (serine/threonine kinase 31)", "viability z-score, siRNA alone": 0.157, "Call": "inactive"}
{"gene": "DYRK2 (dual specificity tyrosine phosphorylation regulated kinase 2)", "viability z-score, siRNA alone": 0.625, "Call": "inactive"}
{"gene": "CDKN1A (cyclin dependent kinase inhibitor 1A)", "viability z-score, siRNA alone": 0.625, "Call": "inactive"}
{"gene": "NADK (NAD kinase)", "viability z-score, siRNA alone": 0.548, "Call": "inactive"}
